Laboratory results: paper PMC4214736, “Identification of a Novel Drug Lead That Inhibits HCV Infection and Cell-to-Cell Transmission by Targeting the HCV E2 Glycoprotein” (PLoS ONE, 2014)
Results are given in words; binding and its absence hold for the method and conditions named. Some results given as binding are weak or reduced against the parent protein; the word gives no strength.

Amino acid sequences for entries named in this document (tags omitted). Residues count along the entry.
UniProt Q9WMX2, residues 384-656: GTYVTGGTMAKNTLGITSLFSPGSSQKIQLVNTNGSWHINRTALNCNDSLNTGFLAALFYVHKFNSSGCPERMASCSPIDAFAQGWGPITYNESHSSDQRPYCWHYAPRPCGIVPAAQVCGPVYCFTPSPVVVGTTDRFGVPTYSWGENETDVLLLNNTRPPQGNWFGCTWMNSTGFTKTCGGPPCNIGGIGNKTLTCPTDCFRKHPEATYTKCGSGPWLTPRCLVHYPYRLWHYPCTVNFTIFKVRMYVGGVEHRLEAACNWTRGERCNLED

Molecular target: T1, native human CD81 on Raji cells (human) (UniProt P60033)
T1 sequence: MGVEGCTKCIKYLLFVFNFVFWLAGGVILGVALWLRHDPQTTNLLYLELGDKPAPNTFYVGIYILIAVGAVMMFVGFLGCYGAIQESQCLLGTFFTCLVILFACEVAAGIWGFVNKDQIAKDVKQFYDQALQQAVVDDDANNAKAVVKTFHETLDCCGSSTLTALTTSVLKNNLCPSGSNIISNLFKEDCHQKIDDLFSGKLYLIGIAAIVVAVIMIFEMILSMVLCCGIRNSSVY
Assay: flow cytometry on cells; purified HCV-E2 (4 µg), pre-incubated with 1-400 µM of the small molecule 281816 for 25 min at RT, added to Raji cells for 25 min; detected with mouse anti-E2 H53 and FITC anti-mouse; MFI; only the binder purified

**Q.** How did the binding turn out when “HCV E2 protein Con1 eE2 (envelope protein 2 ectodomain, amino acids 384-656) (from UniProt Q9WMX2 384-656) (domain or fragment)” was run?
**A.** binds
